{
  "sequences": {"note": "Amino acid sequences for entries named in this document (tags omitted).", "UniProt Q0JBA9, entry or part of it": "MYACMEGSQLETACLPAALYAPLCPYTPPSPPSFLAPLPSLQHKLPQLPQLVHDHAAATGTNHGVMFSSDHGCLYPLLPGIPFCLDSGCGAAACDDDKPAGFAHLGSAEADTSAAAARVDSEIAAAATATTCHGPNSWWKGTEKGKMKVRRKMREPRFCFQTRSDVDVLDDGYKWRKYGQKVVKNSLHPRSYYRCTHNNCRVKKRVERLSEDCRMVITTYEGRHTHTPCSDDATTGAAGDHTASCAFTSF"},
  "source": "paper PMC7819943",
  "about": "“Rice protein-binding microarrays: a tool to detect cis-acting elements near promoter regions in rice”",
  "note": "The list shows a part of the results.",
  "data": [
    {"target": "OsWRKY34 (Oryza sativa, UniProt Q0JBA9 1-250)", "test": "protein-binding microarray (RPBM); PBS, 2% BSA, 51.3 ng/ul salmon testes DNA, 50 uM zinc acetate, 200 nM TF, 25 C, 1 h; high values mean tight binding", "conditions": "protein: recombinant; tags: N-terminal polyhistidine and DsRed monomer fusion (pET32a); label: CyDye5-dUTP incorporated in the synthesized complementary strand; 3' TTTTT single-stranded linker to array surface; dsDNA, one strand shown", "procedure,_shortened": "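Per-feature fluorescence intensity (arbitrary units), read on an Axon 4000B scanner, is the binding signal. Transcription factors carrying an N-terminal polyhistidine tag and DsRed fusion were expressed in E. coli BL21-CodonPlus and purified on Ni–NTA. A custom Agilent array, made double-stranded by primer extension with Cy5-dUTP and blocked with 2% BSA, was incubated with 200 nM protein in PBS, 2% BSA, salmon testes DNA and 50 µM zinc acetate at 25 °C for 1 h and then washed.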", "values": [
      {"sequence": "ACTCGCTCCATTCCATCCCTAAATATTTCACACCGTTAACCGGAGTCACCTAGTGCAG", "binding signal": "10300 fluorescence intensity (a.u.)"},
      {"sequence": "CGCGCTCCGTCTTCCACGCGTGGTGGTGGGGAGGGTATTTCGGAGTCACCTAGTGCAG", "binding signal": "12500 fluorescence intensity (a.u.)"},
      {"sequence": "CTAACACTATTAGGTACTACTTCCTCGGTTTCATATTATACGGAGTCACCTAGTGCAG", "binding signal": "9840 fluorescence intensity (a.u.)"},
      {"sequence": "ATTAATTGATTGGATTGGTTGTGTGCATTATTTCATCTAACGGAGTCACCTAGTGCAG", "binding signal": "8380 fluorescence intensity (a.u.)"},
      {"sequence": "TTTCAGTAGCGTCGGCTGCTCTATCTACTTGCATTGCCTGCGGAGTCACCTAGTGCAG", "binding signal": "8320 fluorescence intensity (a.u.)"},
      {"sequence": "CTTCTCCCTTACGTTCCGTTTGCATCATCTGCCTTGCACACGGAGTCACCTAGTGCAG", "binding signal": "8640 fluorescence intensity (a.u.)"},
      {"sequence": "CGTTTCTCTTTCTTTCTTCCCTTCGGTTTCTCCTCCTCTCCGGAGTCACCTAGTGCAG", "binding signal": "10600 fluorescence intensity (a.u.)"},
      {"sequence": "TCCTCTACTGGGGATGGGTGGAGAGTGAAGAAACCGACGCCGGAGTCACCTAGTGCAG", "binding signal": "8040 fluorescence intensity (a.u.)"},
      {"sequence": "TTTATACCCTCCTGATCAGTGCATCTAGTGCCGTCATCCTCGGAGTCACCTAGTGCAG", "binding signal": "8160 fluorescence intensity (a.u.)"},
      {"sequence": "GAGTTTCCGTGTACAAATTTAATCGTTCGTCTTATTTAAACGGAGTCACCTAGTGCAG", "binding signal": "13300 fluorescence intensity (a.u.)"},
      {"sequence": "GGCGGCTGGTCAGTACTTGCTTGCATCTGAATAGGAACTGCGGAGTCACCTAGTGCAG", "binding signal": "8120 fluorescence intensity (a.u.)"},
      {"sequence": "TCGTATTTGTGTCCGATCATATTCGATTCTTATTTGTATTCGGAGTCACCTAGTGCAG", "binding signal": "9480 fluorescence intensity (a.u.)"},
      {"sequence": "CATCCGATTGCCATATCCAACGGCGTCAATCTTCTCCCCACGGAGTCACCTAGTGCAG", "binding signal": "8530 fluorescence intensity (a.u.)"},
      {"sequence": "CACCACTAGCATTCTTCTTCTCCATCCATCCATCCATCCACGGAGTCACCTAGTGCAG", "binding signal": "14200 fluorescence intensity (a.u.)"},
      {"sequence": "TAGATAACGTCATTGACTTTTTCTCACATATTTGACCATTCGGAGTCACCTAGTGCAG", "binding signal": "12400 fluorescence intensity (a.u.)"},
      {"sequence": "GTCCTTGCTACGATTTTTATTACCCCATGGACCCCACCTTCGGAGTCACCTAGTGCAG", "binding signal": "10800 fluorescence intensity (a.u.)"},
      {"sequence": "TTACGAACTCGCGCTGCCCCTTGCGCCCATGCCGTTGGCGCGGAGTCACCTAGTGCAG", "binding signal": "8460 fluorescence intensity (a.u.)"},
      {"sequence": "GAATCTGGAACTGCTCTGGTGTTAATGTGACTTGTGTTGCCGGAGTCACCTAGTGCAG", "binding signal": "10600 fluorescence intensity (a.u.)"},
      {"sequence": "CAGACCCTAAGCTTCAGACGCGGCCCCATCTACAGCCACTCGGAGTCACCTAGTGCAG", "binding signal": "8120 fluorescence intensity (a.u.)"},
      {"sequence": "ATTTAGTTCTCAACATACCCCTTTTCATCTTTTTGTCAGACGGAGTCACCTAGTGCAG", "binding signal": "8840 fluorescence intensity (a.u.)"},
      {"sequence": "TCCACCTGAGTATATATAGTTATCTTATAGCCTACTTCCTCGGAGTCACCTAGTGCAG", "binding signal": "11400 fluorescence intensity (a.u.)"},
      {"sequence": "AAAATCGGATATATTGCAAAACCATTTATTCGTGTGTTTTCGGAGTCACCTAGTGCAG", "binding signal": "8310 fluorescence intensity (a.u.)"},
      {"sequence": "GAACGAACGAACACCACAAGGTGTCCACAACACAAAGCCGCGGAGTCACCTAGTGCAG", "binding signal": "8250 fluorescence intensity (a.u.)"},
      {"sequence": "CGTTTTCATCTCGTAGTTGCTTGATTGATCTTCGAACTTTCGGAGTCACCTAGTGCAG", "binding signal": "9250 fluorescence intensity (a.u.)"},
      {"sequence": "ATTAATTTCTGATCCCACCTGTCATACACATATTGTTTCTCGGAGTCACCTAGTGCAG", "binding signal": "14300 fluorescence intensity (a.u.)"},
      {"sequence": "AATTTGTATTCAATGCTTCATACACGTGTCCAATGATTTACGGAGTCACCTAGTGCAG", "binding signal": "8250 fluorescence intensity (a.u.)"},
      {"sequence": "ACCATCTCTCTATGGTACATCCCCGTAATGTTCTCTTACACGGAGTCACCTAGTGCAG", "binding signal": "9210 fluorescence intensity (a.u.)"},
      {"sequence": "TGTATTGTTCTGAGTTACAGCAGATGTATCTCTTTTTTTTCGGAGTCACCTAGTGCAG", "binding signal": "9710 fluorescence intensity (a.u.)"},
      {"sequence": "CTAACACTTAATTAATCACGCGATACTACATCGTCTTTTTCGGAGTCACCTAGTGCAG", "binding signal": "9750 fluorescence intensity (a.u.)"},
      {"sequence": "CGAATTATTACGGCCATCCGTAGTCACCACCTCCTTTGACCGGAGTCACCTAGTGCAG", "binding signal": "9100 fluorescence intensity (a.u.)"},
      {"sequence": "ACCCACTCACAGCTGATGATCATCAATCACTCCGGTAATTCGGAGTCACCTAGTGCAG", "binding signal": "10300 fluorescence intensity (a.u.)"},
      {"sequence": "GAGCCTACCTCTACACTCATGCTCACCGCCGCTGTTCCTCCGGAGTCACCTAGTGCAG", "binding signal": "8140 fluorescence intensity (a.u.)"},
      {"sequence": "GTGTCACTCGTGTAGTAGGATGGCAATGGGGCGGGTCGGGCGGAGTCACCTAGTGCAG", "binding signal": "13800 fluorescence intensity (a.u.)"},
      {"sequence": "CTGGGTTTTACATTTGGTCCGCTTCACACGCACCAACAGACGGAGTCACCTAGTGCAG", "binding signal": "9690 fluorescence intensity (a.u.)"},
      {"sequence": "CAAGCCGCTCCGCCTCGTTTCCATCGCCGCCACCACCGCCCGGAGTCACCTAGTGCAG", "binding signal": "8480 fluorescence intensity (a.u.)"},
      {"sequence": "TTTTCATCATTCTAGAGGATATCTCCTTGTTGTATCATCTCGGAGTCACCTAGTGCAG", "binding signal": "8600 fluorescence intensity (a.u.)"},
      {"sequence": "TTCAAGTACGAATTCTTGACCCATCCGACGAGCTTTTACACGGAGTCACCTAGTGCAG", "binding signal": "12000 fluorescence intensity (a.u.)"},
      {"sequence": "GGGCAATTTGTTTCCCTCCGGAAGAATGTTCTTGACGAGTCGGAGTCACCTAGTGCAG", "binding signal": "8120 fluorescence intensity (a.u.)"},
      {"sequence": "ATCTCCATTTTCCTCTCTTTCTCGTTGCGATTTGAGAATTCGGAGTCACCTAGTGCAG", "binding signal": "10100 fluorescence intensity (a.u.)"},
      {"sequence": "TGTGTTGGTAGTGTGGCATGACTTGGTTTCATTTGCACGGCGGAGTCACCTAGTGCAG", "binding signal": "8200 fluorescence intensity (a.u.)"},
      {"sequence": "AAACTTGCATTTCTCATTTTTTGCAGTTACATTTCTGATTCGGAGTCACCTAGTGCAG", "binding signal": "8980 fluorescence intensity (a.u.)"},
      {"sequence": "GGAGTTGTTCAGCTGCCTACGGTGTTGTTTCGCAGCCTCTCGGAGTCACCTAGTGCAG", "binding signal": "10100 fluorescence intensity (a.u.)"}
    ]}
  ]
}
